# Assay results published in article PMC5686073, “Suppression of SRCAP chromatin remodelling complex and restriction of lymphoid lineage commitment by Pcid2” (Nature Communications, 2017).
# Protein sequences, listed by entry. Tags and fused reporters are not part of them.
# UniProt Q8BFV2: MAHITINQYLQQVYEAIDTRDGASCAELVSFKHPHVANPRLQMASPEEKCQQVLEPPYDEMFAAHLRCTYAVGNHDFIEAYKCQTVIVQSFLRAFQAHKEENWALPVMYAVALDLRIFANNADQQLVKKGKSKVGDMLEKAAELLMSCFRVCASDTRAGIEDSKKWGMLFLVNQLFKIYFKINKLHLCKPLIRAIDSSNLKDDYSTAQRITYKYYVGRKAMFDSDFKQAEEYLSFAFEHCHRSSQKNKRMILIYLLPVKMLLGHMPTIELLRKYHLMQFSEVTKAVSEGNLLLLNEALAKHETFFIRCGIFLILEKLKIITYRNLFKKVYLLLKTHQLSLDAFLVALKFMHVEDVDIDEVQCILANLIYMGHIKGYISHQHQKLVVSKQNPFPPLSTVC
# These are yes or no findings as the source states them, for the method shown. Binding seen in cells or lysates may run through a third protein. Some results given as binding are weak or reduced against the parent protein; the word gives no strength.
# T1: ZNHIT1 (endogenous, mouse LSK and MPP cells) (mouse (endogenous in LSK and MPP cells)) (UniProt Q8R331)
# T1 sequence: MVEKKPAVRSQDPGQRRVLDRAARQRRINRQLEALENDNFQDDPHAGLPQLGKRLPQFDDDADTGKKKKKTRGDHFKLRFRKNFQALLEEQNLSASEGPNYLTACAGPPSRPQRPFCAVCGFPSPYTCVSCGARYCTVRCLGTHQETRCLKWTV
# Tests used:
# [1] = molecular target: T1, ZNHIT1 (endogenous, mouse LSK and MPP cells) (mouse (endogenous in LSK and MPP cells)); experiment: co-IP; mouse MPP lysates, anti-SRCAP antibody and protein A/G beads, 4 °C overnight; recombinant PCID2 protein added at different concentrations displaces ZNHIT1 of the lysate from SRCAP; only the binder purified
# [2] = molecular target: PCID2 (endogenous, mouse LSK cells) (mouse (endogenous in LSK cells)) (UniProt Q8BFV2); experiment: co-IP; mouse LSK lysates incubated with anti-PCID2 antibody, rabbit IgG as control; ZNHIT1 detected by immunoblotting
Molecule,binding [1],binding [2]
His-PCID2 (PCI domain-containing protein 2) (from UniProt Q8BFV2 1-399),binds,–
"GST-ZNHIT1 (Zinc finger HIT-type containing 1) (natural protein, mouse, UniProt Q8R331 1-154, looked up, ZNHIT1 (Zinc finger HIT-type containing 1, p18^hamlet), mouse Znhit1 cloned into pGEX-6P-1; Vector pGEX-6P-1; also called GST-tagged ZNHIT1; p18^hamlet; source: E. coli, purified (Glutathione Sepharose 4B)) MVEKKPAVRSQDPGQRRVLDRAARQRRINRQLEALENDNFQDDPHAGLPQLGKRLPQFDDDADTGKKKKKTRGDHFKLRFRKNFQALLEEQNLSASEGPNYLTACAGPPSRPQRPFCAVCGFPSPYTCVSCGARYCTVRCLGTHQETRCLKWTV",–,binds
